# Laboratory results reported in patent US5017584A, “Antidepressant 2-(4,5-dihydro-1H-imidazolyl)-dihydro-1H-indoles, -1,2,3,4-tetrahydroquinolines and -1H-indoles, and methods of use thereas” (Sterling Drug Inc., priority 1985, dated 1991).
# At least one compound was matched to its structure with a doubt left.
# Molecular target: T1, isolated, electrically stimulated rat vas deferens (Rattus norvegicus, UniProt P22909)
# T1 construct: isolated, electrically stimulated rat vas deferens; from tissue; host or cells: isolated rat vas deferens
# T1 sequence (P22909 1-465): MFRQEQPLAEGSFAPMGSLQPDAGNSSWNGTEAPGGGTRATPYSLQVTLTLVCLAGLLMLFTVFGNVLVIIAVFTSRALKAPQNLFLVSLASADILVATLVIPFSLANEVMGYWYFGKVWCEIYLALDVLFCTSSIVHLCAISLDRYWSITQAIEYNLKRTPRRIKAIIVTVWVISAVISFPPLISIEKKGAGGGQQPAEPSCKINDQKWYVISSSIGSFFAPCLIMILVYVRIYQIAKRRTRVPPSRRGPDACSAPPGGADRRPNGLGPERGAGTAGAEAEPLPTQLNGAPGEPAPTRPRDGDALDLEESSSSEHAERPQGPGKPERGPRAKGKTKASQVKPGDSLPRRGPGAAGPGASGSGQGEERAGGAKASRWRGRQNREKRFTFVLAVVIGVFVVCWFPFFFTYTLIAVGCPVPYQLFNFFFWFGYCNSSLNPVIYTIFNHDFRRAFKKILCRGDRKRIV
# Assay: Vas Deferens Assay: antagonism of clonidine-induced inhibition of twitch height in isolated, electrically stimulated rat vas deferens
# Conditions: 10 μm
# Experimental: The α2 -adrenergic antagonist activity of the compounds of the invention was determined by three screening methods, described as follows:
# Results are expressed either in terms of percent inhibition at the concentration of antagonist used or as pA2 values, determined by the Schild method; cf. Tallarida and Murray, Manual of Pharmacologic Calculations, pp. 29-32 (Springer-Verlag, 1981). The pA2 value is the negative logarithms of the concentration of antagonist required to cause a two-fold shift in the dose response curve to clonidine-induced inhibition of twitch height.
smiles,measurement,value
"CC1Cc2ccccc2N(C)C1C1=NCCN1 (stereo not shown) [Example 2, 2-(4,5-dihydro-1H-imidazol-2-yl)-1,3-dimethyl-1,2,3,4-tetrahydroquinoline]",fold shift of clonidine,9 fold
